Data: doi:10.1101/2025.08.24.672027

The chains behind the UniProt entries cited, without tags or fusion partners.
UniProt Q26365: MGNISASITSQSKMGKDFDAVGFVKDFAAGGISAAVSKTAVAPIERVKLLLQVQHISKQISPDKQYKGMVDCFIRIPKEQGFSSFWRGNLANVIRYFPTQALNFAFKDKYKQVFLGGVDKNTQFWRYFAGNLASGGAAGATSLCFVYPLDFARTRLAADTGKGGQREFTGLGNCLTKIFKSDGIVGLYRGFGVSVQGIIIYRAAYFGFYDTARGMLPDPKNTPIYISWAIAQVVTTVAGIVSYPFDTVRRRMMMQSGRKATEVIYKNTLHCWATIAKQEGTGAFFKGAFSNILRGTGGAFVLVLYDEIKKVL

T1: Dcp-1::V5::TurboID (C-terminally V5::TurboID knocked-in Dcp-1) (Drosophila (endogenous knock-in in larval imaginal discs)) (UniProt O02002)
T1 sequence: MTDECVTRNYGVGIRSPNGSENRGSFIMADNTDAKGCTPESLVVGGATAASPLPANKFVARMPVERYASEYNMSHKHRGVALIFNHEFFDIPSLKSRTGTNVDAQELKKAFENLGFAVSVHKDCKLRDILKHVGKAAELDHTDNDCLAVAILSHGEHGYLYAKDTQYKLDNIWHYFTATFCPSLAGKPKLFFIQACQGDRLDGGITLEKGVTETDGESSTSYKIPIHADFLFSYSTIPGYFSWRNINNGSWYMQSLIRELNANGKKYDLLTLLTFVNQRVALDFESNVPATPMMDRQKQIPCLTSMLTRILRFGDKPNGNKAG

B1: Fkbp59 (protein, UniProt Q9VL78 1-439)
chain: MPEGNKIDLSGDGGVLKEILKEGTGTETPHSGCTVSLHYTGRLVDGTEFDSSLSRNEPFEFSLGKGNVIKAFDMGVATMKLGERCFLTCAPNYAYGAAGSPPAIPPDATLIFELEMLGWKGEDLSPNQDGSIDRTILEASDKKRTPSDGAFVKAHISGSFEGRVFEDRDVEFDYGEGKAIGIIDGVEIALEKMNVGETSRIKIQAKYAFGAKGNEEFKIPPNATVEYTVKLVDCGKGLEEWKLSDEERLAEAKVYKEKGTNYFKKENWALAIKMYTKCKNILPTTVHTNEEVKKIKVATHSNIALCHQKSNDHFEAKQECNEVLALDKNNVKALYRRGQCNLTINELEDALEDFQKVIQLEPGNKAAANQVIICKQKLKESKNKEKKLYANMFTKLAANDKETEPPRETDVLSKCGEWSEEDAKREAELTLERDNIIMI
modifications: biotinylated by TurboID (sites not given)
B2: Sirtuin 1 (Sirt1) (enzyme, UniProt Q9VK34 1-823)
chain: MMENYEEIRLGHIRSKDLGNQVPDTTQFYPPTKFDFGAEILASTSTEAEAEAEATATTTEPATSELAGKANGEIKTKTLAAREEQEIGANLEHKTKNPTKSMGEDEDDEEEEEEDDEEEEEDDEEGITGTSNEDEDSSSNCSSSVEPDWKLRWLQREFYTGRVPRQVIASIMPHFATGLAGDTDDSVLWDYLAHLLNEPKRRNKLASVNTFDDVISLVKKSQKIIVLTGAGVSVSCGIPDFRSTNGIYARLAHDFPDLPDPQAMFDINYFKRDPRPFYKFAREIYPGEFQPSPCHRFIKMLETKGKLLRNYTQNIDTLERVAGIQRVIECHGSFSTASCTKCRFKCNADALRADIFAQRIPVCPQCQPNKEQSVDASVAVTEEELRQLVENGIMKPDIVFFGEGLPDEYHTVMATDKDVCDLLIVIGSSLKVRPVAHIPSSIPATVPQILINREQLHHLKFDVELLGDSDVIINQICHRLSDNDDCWRQLCCDESVLTESKELMPPEHSNHHLHHHLLHHRHCSSESERQSQLDTDTQSIKSNSSADYILGSAGTCSDSGFESSTFSCGKRSTAAEAAAIERIKTDILVELNETTALSCDRLGLEGPQTTVESYRHLSIDSSKDSGIEQCDNEATPSYVRPSNLVQETKTVAPSLTPIPQQRGKRQTAAERLQPGTFYSHTNNYSYVFPGAQVFWDNDYSDDDDEEEERSHNRHSDLFGNVGHNYKDDDEDACDLNAVPLSPLLPPSLEAHIVTDIVNGSNEPLPNSSPGQKRTACIIEQQPTPAIETEIPPLKKRRPSEENKQQTQIERSEESPPPGQLAAV
modifications: biotinylated by TurboID (sites not given)
B3: DIAP-1 (protein, UniProt Q24306 1-438)
chain: MASVVADLPSYGPIAFDQVDNNTNATQLFKNNINKTRMNDLNREETRLKTFTDWPLDWLDKRQLAQTGMYFTHAGDKVKCFFCGVEIGCWEQEDQPVPEHQRWSPNCPLLRRRTTNNVPINAEALDRILPPISYDICGANDSTLEMREHAYAEGVIPMSQLIQSIGMNAVNAAGSVTGTAAPQPRVTVATHASTATQATGDVQPETCRPSAASGNYFPQYPEYAIETARLRTFEAWPRNLKQKPHQLAEAGFFYTGVGDRVRCFSCGGGLMDWNDNDEPWEQHALWLSQCRFVKLMKGQLYIDTVAAKPVLAEEKEESSSIGGVAVASTQASEEEQQTSLSSEEAVSGDVAPSVAPTAATRIFNKIVEATAVATPSTNSSGSTSIPEEKLCKICYGAEYNTAFLPCGHVVACAKCASSVTKCPLCRKPFTDVMRVYFS

Experiments:
[1] = target: T1, Dcp-1::V5::TurboID (C-terminally V5::TurboID knocked-in Dcp-1) (Drosophila (endogenous knock-in in larval imaginal discs)); assay: proximity labelling
[2] = target: T1, Dcp-1::V5::TurboID (C-terminally V5::TurboID knocked-in Dcp-1) (Drosophila (endogenous knock-in in larval imaginal discs)); assay: proximity labelling; remark: listed apart in the source

binding [1] | binding [2] | Molecule
binds | – | SesB (from UniProt Q26365 1-312)
– | binds | B1
– | binds | B2
– | no binding | B3

Read-outs that look alike come from different tables or passages of the source. No constants are given. Whether binding was seen depends on the method and setting. In cells and extracts the contact can be indirect. A yes stands for co-enrichment or nearness to the bait. Other partners may have been found. For some of these results: A no says only that the protein was not detected with the bait. Tags and fused reporters may be left off the sequences shown.
